This note sets out measurements from PubChem BioAssay AID493014 (National Center for Advancing Translational Sciences (NCATS), 2011).

“And” between values parts separate entries of the source, which are not always exact repeats. Identical values can stand only once. The list shows a part of the results. These are further read-outs of the screen, such as a control signal, another cell line or another target. No call is given for them. Most of these compounds were active or inconclusive in the main read-out, so they are no random draw. Words in brackets tell the shape of the fitted curve; partial curves, single points and poor fits give uncertain potencies.

This assay can be described thus: qHTS Assay to Find Inhibitors of Chronic Active B-Cell Receptor Signaling. The settings on record: ABC-DLBCL IkBa-CBG/CBR reporter, luminescence ratio (green luciferase fused to IkBa over red control in TMD8 lymphoma cells), 4 h. Summed up: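 TMD8 ABC-DLBCL cells carrying doxycycline-inducible green luciferase fused to IkappaBalpha plus unfused red luciferase were exposed to compounds (up to 46 uM) for 4 hrs at 37C. Activity came from the overlap-corrected green/red luminescence ratio.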

The mark [1] stands for this setting: measured here: CBR red luminescence, cell number.
[2] abbreviates: measured here: IkBa-CBG green luminescence.

`CC(=O)c1cc(C(=O)c2ccccc2)sc1Nc1ccccc1`: the AC50 under setting [1] was 25.9 µM [falling, single point].

Take `COc1ccc(C(=O)N(Cc2nc(-c3ccc(C)cc3)no2)C(C)C)cc1OC`: the AC50 under setting [1] was 18.4 µM [rising, single point].

For the compound `CC1(C)OC(=O)C(C(c2ccccc2)C(C#N)C(N)=O)=C(O)O1` (centres undefined), the AC50 under setting [1] is 29.1 µM [rising, single point].

On to `CC(NC(=O)c1ccccc1)C(=O)N/N=C/c1ccc(O)cc1` (centres undefined), for which the AC50 under setting [1] was 35.5 µM [falling, single point].

As to `CN(C)S(=O)(=O)c1cc(NC(=O)[C@H](Cc2ccccc2)N2C(=O)c3ccccc3C2=O)ccc1Cl`, under setting [1], the AC50 is 3.66 µM [rising, partial curve, poor fit].

Consider `C=CCON1C(=O)c2ccccc2C1=O`, for which the AC50 under setting [1] was 16.4 µM [falling, single point].

Consider `Cc1sc(NC(=O)CN2CCCC2)nc1-c1ccc2c(c1)CCN2C(=O)c1cccc(F)c1`, for which the AC50 under setting [1] is 8.91 µM [falling, partial curve, poor fit].

As for `COc1ccccc1-c1nnc2sc(-c3cnccn3)nn12`, the AC50 under setting [1] was 1.03 µM [falling, single point].

Regarding `O=C(Oc1ccccc1C(=O)Nc1ccccc1)c1ccccc1Br`, the AC50 is 29.1 µM [falling, single point] under setting [1] and 4.11 µM [falling, partial curve, poor fit] under setting [2].

As for `Cc1noc(C)c1CSc1nc2sc(C)c(C)c2c(=O)n1C1CCCC1`, the AC50 under setting [1] was 20.6 µM [rising, single point].

With `CCOC(=O)c1c(NC(=O)COC(=O)CCNS(=O)(=O)c2ccccc2)sc(C(=O)N(C)C)c1C`, the concentration at half-maximal activity (AC50) under setting [1] is 16.4 µM [rising, partial curve, poor fit].

For `O=C(Nc1nnc(-c2ccccc2)s1)c1ccccc1F`, the AC50 under setting [1] is 2.51 µM [falling, partial curve, poor fit].

As for `COc1ccc(OC)c(/C=C/C(=O)c2ccc(Cl)cc2)c1`, the AC50 under setting [1] was 35.5 µM [rising, single point].

With `O=C(COc1ccc2ccccc2c1)NNC(=O)c1ccc([N+](=O)[O-])cc1`, under setting [1], the AC50 is 35.5 µM [rising, partial curve, poor fit].

For `CCC(=O)Nc1cccc(C(=O)/C=C/c2ccc(F)cc2)c1`, the AC50 under setting [1] is 11.2 µM [falling, partial curve, poor fit].

On to `Cc1cccc(OC(C)C(=O)Nc2cc(Cl)ccc2-n2cncn2)c1` (centres undefined), for which the AC50 under setting [1] was 0.461 µM [rising, full curve].

With `Cc1nnc(SCc2cccc(Cl)c2)n(N)c1=O`, the AC50 under setting [1] was 3.55 µM [falling, full curve].

As to `Brc1ccc2c(c1)CNc1c(ncnc1N1CCOCC1)O2`, the AC50 was 8.91 µM [rising, partial curve, poor fit] under setting [1] and 5.62 µM [falling, partial curve, poor fit] under setting [2].

Consider `Cc1nc(NCc2ccccc2)[nH]c(=O)c1CCC(C)C`, for which the AC50 under setting [1] is 0.103 µM [rising, full curve, poor fit].

Consider `Cc1c(C(=O)Nc2ccc(-c3nnc4n3CCCCC4)cc2)oc2c1ccc1ccccc12`, for which the AC50 under setting [2] is 5.17 µM [rising, partial curve, poor fit].

As for `O=C(/C=C/c1cccs1)NC(=S)Nc1ccc(C(=O)O)cc1`, under setting [1], the AC50 is 0.251 µM [falling, full curve, poor fit].

With `CCCN(CCC)CCCNC(=S)Nc1ccc2nc(N3CCN(CC)CC3)cc(C)c2c1`, under setting [1], the AC50 is 1.12 µM [falling, full curve, poor fit].

Take `CCOc1ncccc1C(=O)OCc1ccccc1`: the AC50 under setting [1] was 11.6 µM [rising, partial curve].

Consider `COc1cccc(C(=O)Nc2ccc3c(c2)C(=O)N(CC2CCCO2)C3=O)c1` (centres undefined), for which the AC50 under setting [1] is 20 µM [falling, partial curve, poor fit].

For the compound `CN(CC(=O)N1CCN(c2ncccn2)CC1)S(=O)(=O)c1ccc(Cl)cc1`, the AC50 under setting [1] was 35.5 µM [falling, single point].

As for `C=CCn1c(SCC(=O)NCC)nnc1-c1cc2c(s1)CCC(CC)C2` (centres undefined), the AC50 under setting [1] is 2.91 µM [rising, partial curve].

With `CCN(CC)S(=O)(=O)c1ccc(N2CCOCC2)c(NC(=O)c2c3c(nc4ccccc24)CCC3)c1`, the AC50 is, setting by setting: under setting [1], 2.91 µM [rising, full curve, poor fit]; under setting [2], 5.8 µM [falling, partial curve, poor fit].

As for `CCOc1ccccc1C(=O)N1CCN(c2cccc(Cl)c2)CC1`, the AC50 by setting is: under setting [1], 2.91 µM [rising, full curve, poor fit]; under setting [2], 2.06 µM [falling, full curve].

Regarding `Cc1cc(OCC(=O)N(Cc2ccccc2)C2CCS(=O)(=O)C2)ccc1Cl` (centres undefined), the AC50 under setting [1] is 10 µM [falling, partial curve].

Turning to `CC[C@]12c3[nH]c4ccc(Cl)cc4c3CCN1C(=O)[C@@H](CC(=O)NCc1cccc(C(F)(F)F)c1)C[C@@H]2C(=O)N1CCN(C(=O)C2CC2)CC1`, the AC50 under setting [1] is 29.1 µM [falling, single point].

With `COc1cc2c(cc1OC)CN(C(=S)Nc1ccc(C)cc1C)CC2`, the AC50 under setting [1] is 4.11 µM [falling, single point].

In the case of `Clc1ccccc1/C=C/c1ccnc2ccccc12`, the AC50 under setting [1] is 20 µM [falling, single point].

On to `CC(C)Sc1cc(Cl)nc(NC(=O)Nc2ccccc2)n1`, for which the AC50 under setting [1] is 2 µM [falling, partial curve, poor fit].

As to `C=CCN1C(=O)S/C(=C\c2ccc3c(c2)n(C)c(=O)n3C)C1=O`, the AC50 under setting [1] was 3.26 µM [rising, full curve].

As for `CCOc1cc(/C=C2\SC(N3CCCCC3)=NC2=O)ccc1O`, under setting [1], the AC50 is 20 µM [falling, single point].

As to `Cn1c(SCC(=O)N2CCCCC2)nc2c(c1=O)SCC2`, under setting [1], the AC50 was 22.4 µM [falling, partial curve, poor fit].

As to `C=CCOC(=O)C1=C(C)OC(N)=C(C#N)C1c1ccc(OC)c(CSc2ccccn2)c1` (centres undefined), the AC50 under setting [2] was 20.6 µM [falling, single point].

Regarding `Cc1ccccc1-c1nc2ccccc2c(=O)n1/N=C/c1ccccc1[N+](=O)[O-]`, under setting [1], the AC50 was 12.6 µM [falling, partial curve, poor fit].

`CCOC(=O)c1c(-c2ccccc2)oc2ccc(OCC(O)CN(C)C)cc12` (centres undefined): under setting [1], the AC50 was 5.01 µM [falling, partial curve, poor fit].

Regarding `CC(=C/c1ccco1)/C=N/NC(=O)CSc1nnc(SCc2ccc(C)cc2)s1`, the AC50 under setting [1] was 20.6 µM [falling, single point].

For the compound `COc1ccc(C(=O)N/N=C/c2ccc(OC)c(COc3ccc(F)cc3F)c2)cc1`, the concentration at half-maximal activity (AC50) under setting [1] is 5.62 µM [falling, full curve, poor fit].

For the compound `CC(=O)c1cc(-c2ccccc2)n(CCC(=O)NC(C)(C)C)c1C`, the AC50 under setting [1] was 14.1 µM [rising, partial curve].

Turning to `O=S(=O)(c1ccc(Br)s1)N1CCN(c2ccccn2)CC1`, the AC50 under setting [1] is 2.82 µM [falling, full curve, poor fit].

As to `COc1ccc(CCNC(=O)c2ccc3c(c2)N(Cc2ccc(C)cc2)CCS3)cc1OC`, the AC50 under setting [1] was 35.5 µM [falling, single point].

Turning to `COc1cc(/C=C2/CC/C(=C/c3ccc(O)c(OC)c3)C2=O)ccc1O`, the AC50 under setting [1] is 17.8 µM [falling, partial curve, poor fit].

On to `CCOC(=O)c1c(C)[nH]c(C(=O)COC(=O)CNC(=O)c2ccc(Cl)cc2)c1C`, for which the AC50 under setting [1] was 20.6 µM [falling, partial curve].

In the case of `COc1cc(/C=C(\C#N)C(=O)NCC2CCCO2)ccc1OCCC(C)C` (centres undefined), the AC50 under setting [1] was 6.31 µM [rising, single point].

`Cc1ccc2cc(CCNS(=O)(=O)c3ccc(Br)cc3)c(=O)[nH]c2c1C`: the AC50 under setting [1] is 14.1 µM [falling, partial curve, poor fit].

Take `Cc1cn([C@H]2C=C[C@@H](CO)O2)c(=O)[nH]c1=O`: under setting [1], the AC50 was 10 µM [falling, partial curve] and 20.6 µM [rising, partial curve, poor fit].

On to `CC1=CC(=C2C=CC(=O)C=C2)C=C(C)N1C`, for which the AC50 under setting [1] was 31.6 µM [rising, single point].

`CC(=O)c1c(C)[nH]c(C(=O)OCC(=O)N(CC(C)C)C2CCS(=O)(=O)C2)c1C` (centres undefined): the AC50 under setting [1] is 13 µM [falling, partial curve].

For `Cc1c(C(=O)Nc2ccc(F)c(F)c2)oc2ccc(S(=O)(=O)N3CCCCC3)cc12`, the AC50 under setting [1] was 4.47 µM [falling, full curve, poor fit].

As for `CC(C)(Oc1ccc(Cl)cc1)C(=O)N/N=C/c1cn[nH]c1-c1ccccc1`, the AC50 under setting [1] was 23.1 µM [falling, partial curve, poor fit].

On to `CCOc1ccccc1NC(=O)c1c(NC(=O)CCC(=O)O)sc2c1CCCCC2`, for which, under setting [1], the AC50 was 35.5 µM [falling, single point].

In the case of `CCC(Sc1nc(C)cc(C)n1)C(=O)O` (centres undefined), the AC50 under setting [1] is 0.708 µM [rising, full curve, poor fit].

On to `CCOC(=O)c1c(C)[nH]c(C)c1C(=O)Cn1nnc(-c2ccccc2C)n1`, for which the AC50 under setting [1] was 11.6 µM [rising, partial curve, poor fit].

With `COc1ccc(-c2cccc(C3CC=CC4C3C(=O)N(Cc3ccccc3)C4c3ccc4ccccc4c3)c2)cc1` (centres undefined), the AC50 under setting [1] is 35.5 µM [rising, single point].

`CCCCC(O)(CCCC)C(=O)NN(C(=O)c1cccnc1Cl)c1ccccc1`: the AC50 under setting [1] was 0.1 µM [rising, full curve, poor fit].

For `NC(=O)c1ccsc1NC(=O)COC(=O)c1ccc(Cl)c(N)c1`, under setting [1], the AC50 was 8.2 µM [falling, partial curve].

With `O=S(=O)(CC(c1ccccc1)N1CCCCC1)c1ccc(Cl)cc1` (centres undefined), under setting [1], the AC50 is 35.5 µM [rising, single point].
